Source: article PMC10415178
No constants are given. Whether binding was seen depends on the method and setting. Binding seen in cells or lysates may run through a third protein. Some binding calls cover weakened binding; strength is not graded here.

Sequences of proteins named here, by UniProt entry; tags and fusion partners are left off.
UniProt Q04887: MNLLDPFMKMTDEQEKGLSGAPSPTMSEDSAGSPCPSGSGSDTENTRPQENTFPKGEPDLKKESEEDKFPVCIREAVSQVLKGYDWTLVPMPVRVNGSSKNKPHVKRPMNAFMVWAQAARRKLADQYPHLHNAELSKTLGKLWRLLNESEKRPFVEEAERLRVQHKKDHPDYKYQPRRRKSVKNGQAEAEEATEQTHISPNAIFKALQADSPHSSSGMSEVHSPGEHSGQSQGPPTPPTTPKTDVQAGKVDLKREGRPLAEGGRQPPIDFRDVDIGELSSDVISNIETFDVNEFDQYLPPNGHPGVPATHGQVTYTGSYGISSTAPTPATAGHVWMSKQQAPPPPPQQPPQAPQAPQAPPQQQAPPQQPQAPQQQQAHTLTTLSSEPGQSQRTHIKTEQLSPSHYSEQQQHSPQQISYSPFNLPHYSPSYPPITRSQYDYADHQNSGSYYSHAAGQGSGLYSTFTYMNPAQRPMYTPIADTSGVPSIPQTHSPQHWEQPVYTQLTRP
UniProt A2BH40: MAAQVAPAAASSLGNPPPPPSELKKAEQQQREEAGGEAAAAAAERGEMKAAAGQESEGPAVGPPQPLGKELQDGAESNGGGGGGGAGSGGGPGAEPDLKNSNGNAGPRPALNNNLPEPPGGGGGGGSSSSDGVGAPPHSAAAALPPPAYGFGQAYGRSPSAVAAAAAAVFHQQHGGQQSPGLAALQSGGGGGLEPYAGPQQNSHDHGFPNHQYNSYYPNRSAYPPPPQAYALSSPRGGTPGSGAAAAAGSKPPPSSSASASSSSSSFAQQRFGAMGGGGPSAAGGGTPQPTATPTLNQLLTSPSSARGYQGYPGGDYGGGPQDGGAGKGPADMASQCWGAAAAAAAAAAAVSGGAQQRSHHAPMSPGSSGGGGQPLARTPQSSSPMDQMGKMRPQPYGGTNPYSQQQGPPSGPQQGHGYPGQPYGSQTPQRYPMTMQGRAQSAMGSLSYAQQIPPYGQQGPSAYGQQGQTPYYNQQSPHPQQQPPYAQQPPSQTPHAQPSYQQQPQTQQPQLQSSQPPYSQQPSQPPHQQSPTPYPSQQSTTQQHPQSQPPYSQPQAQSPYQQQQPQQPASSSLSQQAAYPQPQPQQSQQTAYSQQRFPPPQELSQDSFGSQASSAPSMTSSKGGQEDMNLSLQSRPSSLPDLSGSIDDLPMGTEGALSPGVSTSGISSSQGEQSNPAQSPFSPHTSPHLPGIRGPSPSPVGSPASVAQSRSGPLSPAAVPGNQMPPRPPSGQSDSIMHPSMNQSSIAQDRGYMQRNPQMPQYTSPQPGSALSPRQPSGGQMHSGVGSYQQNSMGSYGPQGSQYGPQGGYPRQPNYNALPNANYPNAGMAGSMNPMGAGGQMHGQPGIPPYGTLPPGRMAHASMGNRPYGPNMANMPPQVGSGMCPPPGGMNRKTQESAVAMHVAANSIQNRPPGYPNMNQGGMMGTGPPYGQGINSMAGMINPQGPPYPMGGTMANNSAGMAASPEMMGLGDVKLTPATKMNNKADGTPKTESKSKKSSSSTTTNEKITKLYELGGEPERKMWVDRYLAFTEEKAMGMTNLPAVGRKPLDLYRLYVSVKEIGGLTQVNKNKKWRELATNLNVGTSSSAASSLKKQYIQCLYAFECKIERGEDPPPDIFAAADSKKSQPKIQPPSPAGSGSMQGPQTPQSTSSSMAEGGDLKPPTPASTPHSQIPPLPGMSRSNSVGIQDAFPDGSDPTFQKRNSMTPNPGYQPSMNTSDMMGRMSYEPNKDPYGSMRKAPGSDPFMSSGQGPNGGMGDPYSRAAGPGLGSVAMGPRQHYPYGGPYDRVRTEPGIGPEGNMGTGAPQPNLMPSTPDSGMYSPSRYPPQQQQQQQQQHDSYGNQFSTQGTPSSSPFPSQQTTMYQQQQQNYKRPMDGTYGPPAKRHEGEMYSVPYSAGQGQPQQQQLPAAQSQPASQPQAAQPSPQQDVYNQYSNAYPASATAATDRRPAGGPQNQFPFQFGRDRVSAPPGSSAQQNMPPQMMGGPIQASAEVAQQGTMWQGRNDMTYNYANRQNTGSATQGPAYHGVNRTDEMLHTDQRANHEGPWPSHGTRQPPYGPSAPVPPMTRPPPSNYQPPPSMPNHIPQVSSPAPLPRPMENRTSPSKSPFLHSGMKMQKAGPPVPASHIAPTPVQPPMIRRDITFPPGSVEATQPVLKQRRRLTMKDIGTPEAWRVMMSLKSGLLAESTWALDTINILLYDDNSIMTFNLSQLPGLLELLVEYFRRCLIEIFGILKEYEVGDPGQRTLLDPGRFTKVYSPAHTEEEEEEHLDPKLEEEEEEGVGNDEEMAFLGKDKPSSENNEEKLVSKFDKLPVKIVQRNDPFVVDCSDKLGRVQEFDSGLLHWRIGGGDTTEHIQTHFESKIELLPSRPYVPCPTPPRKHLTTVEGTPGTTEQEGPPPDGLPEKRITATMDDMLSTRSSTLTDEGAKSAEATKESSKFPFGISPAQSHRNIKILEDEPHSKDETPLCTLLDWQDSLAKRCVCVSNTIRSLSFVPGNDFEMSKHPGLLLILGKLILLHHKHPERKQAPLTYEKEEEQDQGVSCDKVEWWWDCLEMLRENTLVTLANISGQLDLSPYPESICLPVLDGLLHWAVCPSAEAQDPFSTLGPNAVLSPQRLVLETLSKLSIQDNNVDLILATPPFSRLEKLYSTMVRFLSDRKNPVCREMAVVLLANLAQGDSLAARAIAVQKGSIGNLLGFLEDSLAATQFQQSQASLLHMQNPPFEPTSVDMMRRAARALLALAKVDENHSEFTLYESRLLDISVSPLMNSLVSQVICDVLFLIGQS
UniProt P05627: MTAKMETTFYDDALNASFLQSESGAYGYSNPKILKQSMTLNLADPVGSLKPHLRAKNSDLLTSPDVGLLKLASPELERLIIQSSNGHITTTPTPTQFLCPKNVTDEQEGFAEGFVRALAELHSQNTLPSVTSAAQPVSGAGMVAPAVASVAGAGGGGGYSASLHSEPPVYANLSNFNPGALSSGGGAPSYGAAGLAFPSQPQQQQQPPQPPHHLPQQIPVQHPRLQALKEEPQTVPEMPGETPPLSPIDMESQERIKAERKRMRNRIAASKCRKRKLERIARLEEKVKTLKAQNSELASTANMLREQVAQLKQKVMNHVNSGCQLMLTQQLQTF

Target: MYC-tagged wild-type SOX9 (lentiviral, plKO TRE) (UniProt Q04887)
Experiment: co-IP; cultured EpdSC lysates with or without DOX induction of MYC-tagged SOX9 or its variants; anti-myc tag antibody on protein-A/G magnetic beads; immunoblot for MLL4, cJUN or ARID1a

Substance	binding
ARID1a (from UniProt A2BH40 1-2283)	binds
c-JUN (from UniProt P05627 1-334)	binds
